Experimental data as given in paper PMC11705647.
No constants are given. Whether binding was seen depends on the method and setting. Binding seen in cells or lysates may run through a third protein. Some entries that bind do so weakly or less than the wild type.

By UniProt entry, the sequences of proteins in these tests, tags left out.
UniProt P30051: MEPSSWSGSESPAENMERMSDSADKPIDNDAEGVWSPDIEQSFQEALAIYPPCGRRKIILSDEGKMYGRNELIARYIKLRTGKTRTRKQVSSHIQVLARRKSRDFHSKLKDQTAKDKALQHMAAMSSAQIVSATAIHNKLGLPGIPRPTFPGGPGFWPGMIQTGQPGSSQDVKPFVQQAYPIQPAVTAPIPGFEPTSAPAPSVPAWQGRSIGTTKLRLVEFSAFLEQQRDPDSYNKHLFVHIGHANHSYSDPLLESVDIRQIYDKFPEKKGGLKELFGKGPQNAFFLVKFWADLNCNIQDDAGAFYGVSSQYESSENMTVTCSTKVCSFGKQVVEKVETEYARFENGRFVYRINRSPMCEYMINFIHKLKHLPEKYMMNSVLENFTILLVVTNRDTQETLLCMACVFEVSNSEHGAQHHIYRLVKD

Target: TEA domain family member 1 (TEAD1) (mouse (endogenous in TCMK-1)) (UniProt P30051)
Test: co-IP; TCMK-1 cells treated with 10 µM cisplatin or vehicle for 24 h, lysed in NP-40 lysis buffer; lysates pre-cleared, incubated with rabbit anti-TEAD1 antibody or rabbit IgG overnight at 4°C, precipitated with protein A/G Plus-agarose; immunoblotted for PGC1α

binding: binds
B1: peroxisomal proliferator-γ coactivator-1α (PGC-1α) (protein, UniProt O70343 1-797)
chain: MAWDMCSQDSVWSDIECAALVGEDQPLCPDLPELDLSELDVNDLDTDSFLGGLKWCSDQSEIISNQYNNEPANIFEKIDEENEANLLAVLTETLDSLPVDEDGLPSFDALTDGAVTTDNEASPSSMPDGTPPPQEAEEPSLLKKLLLAPANTQLSYNECSGLSTQNHAANHTHRIRTNPAIVKTENSWSNKAKSICQQQKPQRRPCSELLKYLTTNDDPPHTKPTENRNSSRDKCASKKKSHTQPQSQHAQAKPTTLSLPLTPESPNDPKGSPFENKTIERTLSVELSGTAGLTPPTTPPHKANQDNPFKASPKLKPSCKTVVPPPTKRARYSECSGTQGSHSTKKGPEQSELYAQLSKSSGLSRGHEERKTKRPSLRLFGDHDYCQSLNSKTDILINISQELQDSRQLDFKDASCDWQGHICSSTDSGQCYLRETLEASKQVSPCSTRKQLQDQEIRAELNKHFGHPCQAVFDDKSDKTSELRDGDFSNEQFSKLPVFINSGLAMDGLFDDSEDESDKLSYPWDGTQPYSLFDVSPSCSSFNSPCRDSVSPPKSLFSQRPQRMRSRSRSFSRHRSCSRSPYSRSRSRSPGSRSSSRSCYYYESSHYRHRTHRNSPLYVRSRSRSPYSRRPRYDSYEAYEHERLKRDEYRKEHEKRESERAKQRERQKQKAIEERRVIYVGKIRPDTTRTELRDRFEVFGEIEECTVNLRDDGDSYGFITYRYTCDAFAALENGYTLRRSNETDFELYFCGRKQFFKSNYADLDTNSDDFDPASTKSKYDSLDFDSLLKEAQRSLRR
